# Measured values taken from the supplement of paper PMC10849652.
# The chains behind the UniProt entries cited, without tags or fusion partners. Where a name states a change or a piece, a line headed by the entry shows the natural chain unless it says otherwise.
# UniProt Q7Z6E9: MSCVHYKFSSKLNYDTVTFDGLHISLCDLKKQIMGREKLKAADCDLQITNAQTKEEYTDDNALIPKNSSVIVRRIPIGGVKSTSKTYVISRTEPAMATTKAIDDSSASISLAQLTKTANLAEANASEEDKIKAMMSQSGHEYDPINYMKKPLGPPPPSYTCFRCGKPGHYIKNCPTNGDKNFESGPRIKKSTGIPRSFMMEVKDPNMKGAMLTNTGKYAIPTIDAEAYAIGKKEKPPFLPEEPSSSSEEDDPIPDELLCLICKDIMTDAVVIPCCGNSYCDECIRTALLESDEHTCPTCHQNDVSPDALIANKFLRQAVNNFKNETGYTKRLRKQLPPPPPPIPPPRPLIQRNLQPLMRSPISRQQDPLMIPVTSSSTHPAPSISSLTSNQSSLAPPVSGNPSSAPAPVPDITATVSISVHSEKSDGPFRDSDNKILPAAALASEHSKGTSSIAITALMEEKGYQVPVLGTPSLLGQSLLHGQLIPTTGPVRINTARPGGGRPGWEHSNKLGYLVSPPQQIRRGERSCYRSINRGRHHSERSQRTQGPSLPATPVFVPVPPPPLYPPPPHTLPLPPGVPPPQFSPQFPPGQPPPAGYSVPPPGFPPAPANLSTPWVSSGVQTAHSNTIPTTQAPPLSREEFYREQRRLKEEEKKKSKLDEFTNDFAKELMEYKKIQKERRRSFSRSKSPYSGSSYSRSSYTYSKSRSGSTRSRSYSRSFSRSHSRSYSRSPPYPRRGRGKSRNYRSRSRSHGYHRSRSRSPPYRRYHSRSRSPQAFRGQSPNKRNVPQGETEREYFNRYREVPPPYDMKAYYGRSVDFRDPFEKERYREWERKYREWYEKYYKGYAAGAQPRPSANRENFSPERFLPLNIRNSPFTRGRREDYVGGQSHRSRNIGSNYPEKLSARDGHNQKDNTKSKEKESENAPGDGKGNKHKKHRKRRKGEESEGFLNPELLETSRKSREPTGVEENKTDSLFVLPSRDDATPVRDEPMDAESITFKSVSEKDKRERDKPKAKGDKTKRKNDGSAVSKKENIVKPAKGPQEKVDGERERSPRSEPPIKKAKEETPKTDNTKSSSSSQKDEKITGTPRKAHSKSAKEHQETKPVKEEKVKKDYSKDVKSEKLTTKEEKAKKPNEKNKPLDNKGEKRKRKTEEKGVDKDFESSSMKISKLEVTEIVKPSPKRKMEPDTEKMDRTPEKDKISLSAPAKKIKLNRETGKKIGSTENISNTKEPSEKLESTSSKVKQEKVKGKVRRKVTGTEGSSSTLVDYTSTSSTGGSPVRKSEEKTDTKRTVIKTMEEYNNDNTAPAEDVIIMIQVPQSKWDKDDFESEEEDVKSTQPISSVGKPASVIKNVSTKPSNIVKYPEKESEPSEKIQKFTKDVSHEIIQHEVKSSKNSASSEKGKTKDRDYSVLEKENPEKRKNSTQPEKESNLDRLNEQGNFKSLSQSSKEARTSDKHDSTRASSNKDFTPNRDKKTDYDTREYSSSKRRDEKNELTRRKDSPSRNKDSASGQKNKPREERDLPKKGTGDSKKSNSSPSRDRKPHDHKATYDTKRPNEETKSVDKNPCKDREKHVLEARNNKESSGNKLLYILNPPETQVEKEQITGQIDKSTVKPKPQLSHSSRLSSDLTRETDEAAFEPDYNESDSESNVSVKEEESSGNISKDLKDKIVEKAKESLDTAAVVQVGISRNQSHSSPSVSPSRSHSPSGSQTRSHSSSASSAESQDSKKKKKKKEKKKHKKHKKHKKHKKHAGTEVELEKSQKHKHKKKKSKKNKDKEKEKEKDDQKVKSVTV
# UniProt Q15283: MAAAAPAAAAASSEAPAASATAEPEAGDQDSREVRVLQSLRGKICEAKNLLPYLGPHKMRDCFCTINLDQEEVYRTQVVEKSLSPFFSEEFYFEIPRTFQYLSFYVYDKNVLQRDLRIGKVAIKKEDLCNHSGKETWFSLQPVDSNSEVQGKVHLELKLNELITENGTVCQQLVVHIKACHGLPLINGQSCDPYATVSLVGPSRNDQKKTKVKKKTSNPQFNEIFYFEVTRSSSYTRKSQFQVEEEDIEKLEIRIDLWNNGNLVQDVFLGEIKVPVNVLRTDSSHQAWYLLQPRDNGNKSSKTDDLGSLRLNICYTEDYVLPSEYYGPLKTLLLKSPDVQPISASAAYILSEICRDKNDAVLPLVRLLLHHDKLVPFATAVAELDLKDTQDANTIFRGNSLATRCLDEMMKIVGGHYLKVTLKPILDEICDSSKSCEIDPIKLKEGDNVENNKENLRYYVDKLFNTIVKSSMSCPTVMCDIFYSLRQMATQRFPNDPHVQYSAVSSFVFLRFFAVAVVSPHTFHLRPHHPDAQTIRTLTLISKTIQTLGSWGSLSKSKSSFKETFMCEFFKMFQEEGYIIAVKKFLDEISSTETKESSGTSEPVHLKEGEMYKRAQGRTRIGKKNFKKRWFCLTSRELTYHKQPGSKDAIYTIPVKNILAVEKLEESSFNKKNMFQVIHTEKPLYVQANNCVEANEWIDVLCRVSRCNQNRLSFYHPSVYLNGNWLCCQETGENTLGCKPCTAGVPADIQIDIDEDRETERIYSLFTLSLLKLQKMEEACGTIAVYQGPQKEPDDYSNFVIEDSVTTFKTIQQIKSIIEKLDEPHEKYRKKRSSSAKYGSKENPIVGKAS
# UniProt P20936: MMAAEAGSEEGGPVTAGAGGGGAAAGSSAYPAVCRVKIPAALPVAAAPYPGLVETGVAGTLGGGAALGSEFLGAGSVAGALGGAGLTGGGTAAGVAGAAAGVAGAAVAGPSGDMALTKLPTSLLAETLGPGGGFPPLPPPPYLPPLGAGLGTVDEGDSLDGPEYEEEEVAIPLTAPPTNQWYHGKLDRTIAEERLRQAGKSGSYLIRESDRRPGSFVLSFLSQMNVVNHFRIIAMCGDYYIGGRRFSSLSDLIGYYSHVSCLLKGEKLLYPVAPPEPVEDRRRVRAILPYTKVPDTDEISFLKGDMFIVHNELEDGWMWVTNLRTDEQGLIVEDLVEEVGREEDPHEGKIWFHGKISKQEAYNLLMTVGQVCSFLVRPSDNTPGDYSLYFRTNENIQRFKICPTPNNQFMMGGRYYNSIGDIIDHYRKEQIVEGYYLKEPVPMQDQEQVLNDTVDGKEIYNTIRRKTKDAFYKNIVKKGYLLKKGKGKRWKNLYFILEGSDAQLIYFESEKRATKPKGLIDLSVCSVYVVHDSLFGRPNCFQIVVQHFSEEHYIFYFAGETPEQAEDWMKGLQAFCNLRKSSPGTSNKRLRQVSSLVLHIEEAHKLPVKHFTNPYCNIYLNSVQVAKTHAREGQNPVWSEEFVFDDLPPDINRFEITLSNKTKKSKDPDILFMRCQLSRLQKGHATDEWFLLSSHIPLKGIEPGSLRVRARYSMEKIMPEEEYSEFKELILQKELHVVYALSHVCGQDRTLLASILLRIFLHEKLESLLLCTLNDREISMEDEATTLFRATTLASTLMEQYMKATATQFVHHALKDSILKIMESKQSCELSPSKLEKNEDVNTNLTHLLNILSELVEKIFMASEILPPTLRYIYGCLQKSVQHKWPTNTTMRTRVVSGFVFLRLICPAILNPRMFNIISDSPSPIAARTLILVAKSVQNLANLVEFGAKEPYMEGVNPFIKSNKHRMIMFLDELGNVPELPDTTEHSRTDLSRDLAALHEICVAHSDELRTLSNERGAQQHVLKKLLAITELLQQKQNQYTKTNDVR
# UniProt Q15291, whole entry, looked up: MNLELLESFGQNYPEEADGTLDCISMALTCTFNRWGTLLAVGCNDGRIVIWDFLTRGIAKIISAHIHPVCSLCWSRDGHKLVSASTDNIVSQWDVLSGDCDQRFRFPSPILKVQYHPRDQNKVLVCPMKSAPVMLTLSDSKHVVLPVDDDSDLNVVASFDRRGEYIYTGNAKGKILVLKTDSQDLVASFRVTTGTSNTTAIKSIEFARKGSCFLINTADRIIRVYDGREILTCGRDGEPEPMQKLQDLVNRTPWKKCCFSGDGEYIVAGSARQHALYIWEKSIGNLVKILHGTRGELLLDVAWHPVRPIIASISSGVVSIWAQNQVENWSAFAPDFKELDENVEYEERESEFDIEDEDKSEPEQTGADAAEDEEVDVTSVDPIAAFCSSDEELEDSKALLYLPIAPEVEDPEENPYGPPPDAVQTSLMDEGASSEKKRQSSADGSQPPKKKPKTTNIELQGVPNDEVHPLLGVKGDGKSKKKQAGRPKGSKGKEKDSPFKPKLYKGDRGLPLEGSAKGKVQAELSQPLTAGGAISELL
# UniProt Q86X10: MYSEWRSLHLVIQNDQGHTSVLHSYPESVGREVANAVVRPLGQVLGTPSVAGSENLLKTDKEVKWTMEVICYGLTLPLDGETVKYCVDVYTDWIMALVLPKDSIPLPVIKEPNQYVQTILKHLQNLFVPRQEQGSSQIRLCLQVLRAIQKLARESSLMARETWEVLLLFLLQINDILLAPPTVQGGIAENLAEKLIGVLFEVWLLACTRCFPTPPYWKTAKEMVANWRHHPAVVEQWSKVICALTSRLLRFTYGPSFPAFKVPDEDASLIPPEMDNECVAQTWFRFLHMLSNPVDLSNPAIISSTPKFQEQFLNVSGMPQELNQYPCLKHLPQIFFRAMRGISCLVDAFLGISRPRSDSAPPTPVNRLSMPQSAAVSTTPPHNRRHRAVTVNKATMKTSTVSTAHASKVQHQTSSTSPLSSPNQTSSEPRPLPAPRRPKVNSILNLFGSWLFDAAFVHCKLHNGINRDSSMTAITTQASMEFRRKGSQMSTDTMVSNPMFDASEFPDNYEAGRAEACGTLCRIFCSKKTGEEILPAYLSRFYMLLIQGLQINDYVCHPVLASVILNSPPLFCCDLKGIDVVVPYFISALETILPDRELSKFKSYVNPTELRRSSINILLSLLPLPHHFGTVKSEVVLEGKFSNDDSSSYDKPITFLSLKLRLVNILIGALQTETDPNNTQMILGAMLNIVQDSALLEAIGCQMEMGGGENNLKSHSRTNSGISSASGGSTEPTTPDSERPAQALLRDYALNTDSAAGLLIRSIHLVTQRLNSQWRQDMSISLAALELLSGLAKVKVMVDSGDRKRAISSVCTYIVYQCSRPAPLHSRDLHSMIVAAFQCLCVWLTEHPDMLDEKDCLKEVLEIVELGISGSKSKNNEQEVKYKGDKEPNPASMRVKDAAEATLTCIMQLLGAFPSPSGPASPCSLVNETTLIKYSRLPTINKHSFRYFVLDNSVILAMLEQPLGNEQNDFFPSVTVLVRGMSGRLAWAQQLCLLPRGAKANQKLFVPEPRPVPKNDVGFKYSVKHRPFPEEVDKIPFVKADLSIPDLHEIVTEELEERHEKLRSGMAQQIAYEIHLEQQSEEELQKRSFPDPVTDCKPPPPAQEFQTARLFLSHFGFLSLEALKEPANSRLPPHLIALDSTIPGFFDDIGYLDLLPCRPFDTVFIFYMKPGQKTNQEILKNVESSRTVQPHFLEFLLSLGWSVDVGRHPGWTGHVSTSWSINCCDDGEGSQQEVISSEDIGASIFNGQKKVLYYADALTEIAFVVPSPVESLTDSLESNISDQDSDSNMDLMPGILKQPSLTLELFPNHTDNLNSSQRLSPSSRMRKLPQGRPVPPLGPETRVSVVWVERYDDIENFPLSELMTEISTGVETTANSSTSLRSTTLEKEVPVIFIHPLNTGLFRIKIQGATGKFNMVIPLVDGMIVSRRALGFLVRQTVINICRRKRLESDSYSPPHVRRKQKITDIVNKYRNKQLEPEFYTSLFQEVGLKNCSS
# UniProt P51148: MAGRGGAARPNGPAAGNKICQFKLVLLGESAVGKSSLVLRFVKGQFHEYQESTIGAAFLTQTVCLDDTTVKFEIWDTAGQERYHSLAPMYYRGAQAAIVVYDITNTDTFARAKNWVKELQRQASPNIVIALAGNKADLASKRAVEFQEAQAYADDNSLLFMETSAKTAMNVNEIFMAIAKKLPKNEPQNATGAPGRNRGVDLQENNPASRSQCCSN
# UniProt P20337: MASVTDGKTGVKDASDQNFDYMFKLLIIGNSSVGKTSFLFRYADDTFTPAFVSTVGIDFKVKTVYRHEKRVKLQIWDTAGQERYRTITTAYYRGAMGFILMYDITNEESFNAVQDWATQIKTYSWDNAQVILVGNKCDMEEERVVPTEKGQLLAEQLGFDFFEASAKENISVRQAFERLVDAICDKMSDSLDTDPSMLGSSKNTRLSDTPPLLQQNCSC
# UniProt Q16576, whole entry, looked up: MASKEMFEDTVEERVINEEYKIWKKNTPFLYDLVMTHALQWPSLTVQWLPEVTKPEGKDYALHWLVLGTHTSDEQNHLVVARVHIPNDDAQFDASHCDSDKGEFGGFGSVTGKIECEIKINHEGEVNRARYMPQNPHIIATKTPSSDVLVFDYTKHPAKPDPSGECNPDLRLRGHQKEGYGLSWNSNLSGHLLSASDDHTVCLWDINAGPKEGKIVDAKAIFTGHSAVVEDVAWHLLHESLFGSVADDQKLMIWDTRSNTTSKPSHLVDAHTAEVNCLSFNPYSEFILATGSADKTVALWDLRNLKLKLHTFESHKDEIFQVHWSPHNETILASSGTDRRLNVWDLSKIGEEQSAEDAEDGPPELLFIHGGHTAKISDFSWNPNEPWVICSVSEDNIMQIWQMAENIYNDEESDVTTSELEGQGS
# The list shows a part of the results.
# Assays:
# Assay in all cases: log2 fold change, soluble protein after heating vs DMSO (PISA); higher = thermal stabilisation; K562 cells, 10 uM, 30 min; active = over 0.2 and 3.5 SD of the protein, either way, in both replicates (recomputed)
# [1] = compound: CC1=C(C=C(C=C1)NC(=O)C2=CC(=CC=C2)C(C)(C)C#N)NC3=CC4=C(C=C3)N=CN(C4=O)C
# Procedure, shortened: (§1)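 Quantification of soluble protein used TMTpro 16plex LC-MS/MS, with channel sums equalised. Samples were the supernatant after 21,000xg for 90 min of pooled aliquots from K562 cells (2×10^6 cells/mL) treated with 10 μM compound for 30 min, heated for 3 min over 48°C-58°C, and extracted in PBS with 0.5% NP-40 at 4°C. Values, from duplicates, describe thermal stability against control samples on a log2 fold-change scale.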
# [2] = compound: CC1=C(C=C(C=C1)NC(=O)C2=CC(=CC=C2)N(C)C)NC(=O)C3=CC=C(C=C3)O
# Procedure, shortened: as §1
# [3] = compound: CC1=CC=C(C=C1)SC2=C3C=C(SC3=CN=C2)C(=O)N
# Procedure, shortened: as §1
# [4] = compound: CC1=NC(=CC=C1)C2=C(N=C(N2)C(C)(C)C)C3=CC4=NC=CN=C4C=C3
# Procedure, shortened: as §1
# Nexturastat A = compound: CCCCN(Cc1ccc(C(=O)NO)cc1)C(=O)Nc1ccccc1 [Nexturastat A]
# Procedure, shortened: as §1
# vemurafenib = compound: CCCS(=O)(=O)Nc1ccc(F)c(C(=O)c2c[nH]c3ncc(-c4ccc(Cl)cc4)cc23)c1F [vemurafenib]
# Procedure, shortened: as §1
# [5] = compound: CCCS(=O)(=O)Nc1ccc(F)c(C(=O)c2c[nH]c3ncc(Cl)cc23)c1F
# Procedure, shortened: as §1
# [6] = compound: CCCc1cc(C)[nH]c(=O)c1CNC(=O)c1cc(-c2ccnc(N3CCN(C)CC3)c2)cc2c1cnn2C(C)C
# Procedure, shortened: as §1
# givinostat = compound: CCN(CC)Cc1ccc2cc(COC(=O)Nc3ccc(C(=O)NO)cc3)ccc2c1 [givinostat]
# Procedure, shortened: as §1
# barasertib = compound: CCN(CCCOc1ccc2c(Nc3cc(CC(=O)Nc4cccc(F)c4)[nH]n3)ncnc2c1)CCOP(=O)(O)O [barasertib]
# Procedure, shortened: as §1
# [7] = compound: CC[C@@H]1C(=O)N(C)c2cnc(Nc3ccc(C(=O)NC4CCN(C)CC4)cc3OC)nc2N1C1CCCC1
# Procedure, shortened: as §1
# volasertib = compound: CC[C@@H]1C(=O)N(C)c2cnc(Nc3ccc(C(=O)N[C@H]4CC[C@H](N5CCN(CC6CC6)CC5)CC4)cc3OC)nc2N1C(C)C [volasertib]
# Procedure, shortened: as §1
# [8] = compound: CC[C@H](C)N1C=C(C2=C(C=C(C=C21)C3=CN=C(C=C3)N4CCNCC4)C(=O)NCC5=C(C=C(NC5=O)C)C)C
# Procedure, shortened: as §1
# epoxomicin = compound: CC[C@H](C)[C@@H](C(=O)N[C@@H]([C@@H](C)O)C(=O)N[C@@H](CC(C)C)C(=O)[C@]1(CO1)C)NC(=O)[C@H]([C@@H](C)CC)N(C)C(=O)C [epoxomicin]
# Procedure, shortened: as §1
# [9] = compound: CCn1cc(-c2ccnc3[nH]c(-c4cccc(CN(C)C)c4)cc23)c(-c2ccc(NC(=O)N(C)C)cc2)n1
# Procedure, shortened: as §1
# [10] = compound: CN(C)CC(=O)Nc1ccc2[nH]c(=O)c3ccccc3c2c1
# Procedure, shortened: as §1
# [11] = compound: CN1CCC(CNc2ccc3ncc(-c4cccc(OC(F)(F)F)c4)n3n2)CC1
# Procedure, shortened: as §1
# rosiglitazone = compound: CN(CCOC1=CC=C(C=C1)C[C@H]2C(=O)NC(=O)S2)C3=CC=CC=N3 (racemic) [rosiglitazone]
# Procedure, shortened: as §1
# [12] = compound: CN1C2=C(C3=C1C(=O)N(N=C3)CC4=CC(=CC=C4)N)SC(=C2)S(=O)C
# Procedure, shortened: as §1
# [13] = compound: CCn1c(C(=O)N(C2CC2)C2CC2)cc2c3c(ncn3C)c(Nc3cc(C)n(C)n3)nc21
# Procedure, shortened: as §1
Target,log2 fold change [1],log2 fold change [2],log2 fold change [3],log2 fold change [4],log2 fold change (Nexturastat A),log2 fold change (vemurafenib),log2 fold change [5],log2 fold change [6],log2 fold change (givinostat),log2 fold change (barasertib),log2 fold change [7],log2 fold change (volasertib),log2 fold change [8],log2 fold change (epoxomicin),log2 fold change [9],log2 fold change [10],log2 fold change [11],log2 fold change (rosiglitazone),log2 fold change [12],log2 fold change [13]
RBBP6 (UniProt Q7Z6E9),inactive: -0.108,inactive: 0.119,inactive: 0.03,inactive: 0.127,inactive: -0.051,inactive: 0.008,inactive: 0.068,inactive: -0.023,inactive: 0.043,inactive: -0.018,inactive: -0.061,inactive: -0.068,inactive: 0.013,inactive: -0.001,inactive: -0.003,inactive: 0.024,inactive: -0.014,–,–,–
RASA2 (UniProt Q15283),inactive: -0.031,inactive: -0.03,inactive: -0.32,inactive: -0.28,inactive: -0.053,inactive: -0.217,inactive: -0.438,inactive: -0.001,–,inactive: 0.04,inactive: 0.011,inactive: -0.028,–,inactive: -0.092,inactive: -0.026,inactive: -0.141,inactive: -0.157,inactive: 0.203,inactive: 0.308,–
RASA1 (UniProt P20936),inactive: -0.107,inactive: 0.003,inactive: 0.014,inactive: -0.105,inactive: -0.178,inactive: 0.021,inactive: -0.011,inactive: 0.056,inactive: 0.025,–,inactive: 0.109,inactive: -0.173,inactive: 0.069,inactive: -0.065,–,inactive: -0.067,–,–,inactive: -0.077,inactive: 0.006
RAVER1 (UniProt E9PAU2),inactive: 0.144,inactive: -0.075,inactive: -0.025,inactive: 0.144,inactive: -0.046,inactive: -0.1,inactive: 0.067,inactive: 0.293,inactive: 0.131,inactive: 0.099,inactive: -0.222,active: -1.93,inactive: 0.13,inactive: 0.147,inactive: -0.006,inactive: 0.174,inactive: -0.375,–,inactive: -0.007,–
RBBP5 isoform 2 (UniProt Q15291),inactive: 0.025,inactive: -0.05,inactive: -0.074,–,inactive: -0.018,inactive: 0.092,inactive: -0.004,inactive: -0.056,inactive: -0.144,inactive: -0.023,inactive: -0.09,inactive: -0.107,inactive: -0.166,inactive: -0.232,inactive: -0.185,inactive: -0.152,inactive: 0.085,inactive: 0.147,–,inactive: 0.005
RAB27B (UniProt O00194),inactive: -0.038,inactive: 0.063,inactive: 0.022,inactive: -0.08,–,inactive: 0.01,inactive: -0.005,inactive: 0.129,inactive: 0.026,inactive: -0.099,inactive: 0.072,inactive: 0.085,inactive: 0.005,–,inactive: -0.181,inactive: -0.075,inactive: 0.22,inactive: -0.043,inactive: -0.059,inactive: -0.025
RALY (UniProt Q9UKM9),inactive: 0.091,inactive: -0.021,inactive: -0.05,inactive: 0.105,inactive: 0.358,inactive: -0.056,inactive: 0.187,inactive: 0.005,inactive: 0.209,inactive: -0.138,inactive: 0.113,inactive: -0.05,inactive: 0.136,inactive: -0.277,inactive: 0.173,inactive: 0.001,inactive: 0.092,–,inactive: 0.358,–
RALGAPB (UniProt Q86X10),inactive: 0,inactive: -0.085,inactive: 0.049,inactive: 0.072,inactive: 0.033,–,inactive: 0.037,inactive: 0.084,–,inactive: 0.016,inactive: 0.039,inactive: -0.415,inactive: 0.053,inactive: -0.04,–,–,–,inactive: 0.024,inactive: 0.007,–
RAPGEF6 isoform 4 (UniProt Q8TEU7),inactive: 0.075,inactive: 0.005,–,inactive: -0.029,inactive: -0.025,inactive: -0.103,–,inactive: 0.242,inactive: 0.026,inactive: 0.075,inactive: 0.018,–,inactive: 0.063,inactive: 0.055,inactive: -0.034,inactive: -0.089,inactive: -0.202,inactive: 0.081,–,inactive: -0.061
"RAD50, A0A494C0Y7",inactive: -0.005,inactive: -0.03,inactive: -0.063,inactive: -0.041,–,inactive: 0.045,inactive: 0,inactive: -0.244,–,inactive: -0.171,inactive: 0.077,inactive: -0.109,–,–,inactive: 0.033,inactive: 0.055,inactive: 0.04,–,inactive: 0.097,–
RANBP6 (UniProt O60518),inactive: 0.01,inactive: -0.087,inactive: -0.01,inactive: -0.201,–,–,inactive: -0.034,–,–,–,inactive: -0.093,inactive: -0.194,–,–,–,–,–,–,inactive: -0.271,–
RAF1 isoform 2 (UniProt P04049),inactive: 0.317,inactive: 0.056,inactive: 0.078,inactive: -0.043,inactive: 0.077,inactive: 0.17,inactive: 0.438,inactive: -0.113,inactive: 0.016,inactive: 0.044,inactive: 0.135,inactive: -0.361,–,inactive: -0.003,inactive: -0.241,inactive: 0.028,inactive: -0.222,–,inactive: -0.129,–
"RAPGEF5, A0A590UJR0",inactive: -0.068,inactive: 0.094,inactive: 0.399,inactive: 0.041,–,inactive: -0.428,inactive: -0.517,inactive: -0.036,inactive: -0.017,inactive: 0.084,inactive: 0.024,inactive: -0.66,inactive: -0.029,–,inactive: -0.09,inactive: -0.207,inactive: -0.039,inactive: 0.104,inactive: 0.163,inactive: -0.101
RAB5C isoform 2 (UniProt P51148),inactive: 0.069,inactive: -0.02,inactive: 0.02,inactive: 0.01,inactive: -0.029,inactive: 0.015,inactive: 0.008,inactive: -0.017,inactive: 0.006,inactive: -0.031,inactive: 0.004,inactive: 0.045,inactive: -0.024,inactive: 0,inactive: -0.002,inactive: 0,inactive: 0.018,–,inactive: -0.032,–
RAB3IL1 (UniProt E9PK89),inactive: -0.069,inactive: -0.037,inactive: 0,inactive: 0.061,inactive: -0.111,inactive: -0.08,inactive: -0.053,–,inactive: 0.278,inactive: -0.014,inactive: -0.012,inactive: -0.137,inactive: 0.25,inactive: 0.109,active: -0.555,inactive: 0.035,inactive: -0.342,–,–,–
RAB3B (UniProt P20337),inactive: -0.114,inactive: 0.23,inactive: -0.002,–,–,–,inactive: -0.169,–,inactive: -0.077,–,–,inactive: -0.065,–,–,inactive: 0.592,–,inactive: -0.124,–,–,inactive: 0.035
RBBP7 (UniProt Q16576),inactive: 0.051,inactive: -0.003,inactive: 0.002,inactive: -0.117,inactive: 0.007,–,inactive: 0,inactive: -0.107,inactive: -0.03,inactive: 0.019,inactive: -0.11,inactive: -0.115,inactive: -0.047,inactive: 0.018,–,–,–,inactive: 0.046,inactive: -0.148,inactive: 0.049
RABGAP1L isoform 3 (UniProt Q5R372),inactive: 0.002,inactive: 0.018,inactive: 0.018,inactive: -0.005,inactive: -0.058,inactive: -0.008,inactive: 0.073,inactive: 0.03,inactive: 0.034,inactive: 0.022,inactive: -0.046,inactive: -0.107,inactive: 0.053,inactive: 0.08,inactive: -0.034,inactive: -0.011,inactive: 0.025,–,inactive: 0.02,–
RAP1GAP isoform 4 (UniProt P47736),inactive: -0.052,inactive: -0.073,inactive: 0.074,inactive: 0.007,inactive: 0.094,inactive: -0.002,inactive: 0.002,inactive: 0,inactive: 0.136,inactive: -0.036,–,inactive: -0.321,inactive: 0.109,inactive: -0.039,inactive: 0.101,inactive: 0.014,inactive: -0.487,inactive: 0.129,inactive: 0.037,inactive: -0.126
RAD51 (UniProt Q06609),inactive: -0.012,inactive: -0.017,inactive: -0.042,inactive: -0.052,inactive: 0.001,inactive: 0.02,inactive: -0.048,inactive: 0.032,inactive: 0.179,inactive: 0.016,inactive: 0.013,inactive: 0.113,inactive: 0.026,inactive: 0.157,inactive: -0.011,inactive: -0.024,inactive: 0.051,–,inactive: -0.075,–

# Individual results from the entries so far:
# Under log2 fold change [4], RANBP6 (UniProt O60518) reads inactive: -0.201
# Under log2 fold change [12], RALY (UniProt Q9UKM9) reads inactive: 0.358
